PubChem BioAssay AID493246, Drosophila RNAi Screening Center – 2011
Test: 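Genes fly cells need to grow and stay alive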 (primary screen). Cell system: Drosophila Kc and S2R+ cells. Reagents: long dsRNA against Drosophila genes. Measurement: 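Raw, unnormalised count of remaining cells in each well; per-plate z-scores of cell number underlie the calls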. Reading the numbers: Kc cell number and S2R+ cell number: higher = more cells remaining. Call rule: 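Counted as a hit if cell number falls by a z-score of at least 3 within its plate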.
The screen tested about 21,000 reagents; below is an unselected part of those that have a named target and a result. In the full data, 429 (2%) got an active call. 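Values are raw and not normalised between plates; calls rest on per-plate z-scores that were not deposited.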 Names joined by + are all predicted targets of the reagent. Not given: the amount of reagent, the time to read-out.

predicted target | dsRNA | Kc cell number, rep 1 | Kc cell number, rep 2 | S2R+ cell number, rep 1 | S2R+ cell number, rep 2 | Call
Srp54k (Signal recognition particle 54k) | DRSC11289 | 1.58e6 | 1.68e6 | 1.23e6 | 1.32e6 | inactive
5-HT1A (5-hydroxytryptamine (serotonin) receptor 1A) | DRSC05030 | 1.47e6 | 1.49e6 | 1.15e6 | 1.27e6 | inactive
Pfdn4 (Prefoldin 4) | DRSC09761 | 1.35e6 | 1.32e6 | 1.13e6 | 1.15e6 | inactive
CG13625 | DRSC14627 | 1.45e6 | 1.57e6 | 9.49e5 | 1.07e6 | inactive
CG42541 | DRSC17973 | 1.59e6 | 1.56e6 | 1.05e6 | 1.16e6 | inactive
CG42541 | DRSC18119 | 8.36e5 | 9.13e5 | 4.41e5 | 5.14e5 | active
CG42541 | DRSC18120 | 1.50e6 | 1.47e6 | 1.04e6 | 1.14e6 | inactive
RpS19a (Ribosomal protein S19a) | DRSC20281 | 9.14e5 | 9.92e5 | 7.22e5 | 8.83e5 | active
CG30083 | DRSC05572 | 1.65e6 | 1.64e6 | 1.04e6 | 1.21e6 | inactive
shps (sheepish) | DRSC14614 | 1.51e6 | 1.47e6 | 9.80e5 | 1.10e6 | inactive
Trs31 (TRAPP subunit 31) | DRSC05975 | 1.44e6 | 1.51e6 | 1.10e6 | 1.23e6 | inactive
CG12520 | DRSC09892 | 1.40e6 | 1.40e6 | 1.24e6 | 1.27e6 | inactive
CG9101 | DRSC20152 | 1.54e6 | 1.55e6 | 1.02e6 | 1.17e6 | inactive
fus (fusilli) | DRSC05569 | 1.56e6 | 1.53e6 | 1.12e6 | 1.32e6 | inactive
fus (fusilli) | DRSC07107 | 1.44e6 | 1.55e6 | 1.08e6 | 9.73e5 | inactive
CG8565 | DRSC20112 | 1.68e6 | 1.70e6 | 1.21e6 | 1.28e6 | inactive
nec (necrotic) | DRSC06769 | 1.53e6 | 1.56e6 | 1.28e6 | 1.29e6 | inactive
Adat1 (Adenosine deaminase, tRNA-specific 1) | DRSC03479 | 1.50e6 | 1.53e6 | 1.24e6 | 1.39e6 | inactive
CG14075 | DRSC10080 | 1.64e6 | 1.72e6 | 1.29e6 | 1.47e6 | inactive
CG15136 | DRSC02436 | 1.48e6 | 1.54e6 | 1.21e6 | 1.40e6 | inactive
l(2)SH0834 (lethal (2) SH0834) | DRSC02854 | 1.47e6 | 1.53e6 | 9.52e5 | 1.03e6 | inactive
mRpL49 (mitochondrial ribosomal protein L49) | DRSC19908 | 1.44e6 | 1.42e6 | 9.32e5 | 1.00e6 | inactive
CG13223 | DRSC06344 | 1.51e6 | 1.59e6 | 1.25e6 | 1.35e6 | inactive
RnpS1 (RNA-binding protein S1) | DRSC15154 | 1.54e6 | 1.49e6 | 1.17e6 | 1.26e6 | inactive
CG6479 | DRSC10647 | 1.40e6 | 1.50e6 | 1.06e6 | 1.12e6 | inactive
ArgRS (Arginyl-tRNA synthetase) | DRSC20138 | 1.65e6 | 1.68e6 | 1.08e6 | 1.24e6 | inactive

The list goes on; the last 3 above are carried over.
predicted target | dsRNA | Kc cell number, rep 1 | Kc cell number, rep 2 | S2R+ cell number, rep 1 | S2R+ cell number, rep 2 | Call
RnpS1 (RNA-binding protein S1) | DRSC15154 | 1.54e6 | 1.49e6 | 1.17e6 | 1.26e6 | inactive
CG6479 | DRSC10647 | 1.40e6 | 1.50e6 | 1.06e6 | 1.12e6 | inactive
ArgRS (Arginyl-tRNA synthetase) | DRSC20138 | 1.65e6 | 1.68e6 | 1.08e6 | 1.24e6 | inactive
RN-tre (Related to the N terminus of tre oncogene) | DRSC07521 | 1.61e6 | 1.62e6 | 1.31e6 | 1.50e6 | inactive
Rack1 (Receptor of activated protein kinase C 1) | DRSC03405 | 1.55e6 | 1.64e6 | 1.05e6 | 1.16e6 | inactive
GstE1 (Glutathione S transferase E1) | DRSC07437 | 1.63e6 | 1.70e6 | 1.29e6 | 1.46e6 | inactive
eIF3k (eukaryotic translation initiation factor 3 subunit k) | DRSC04056 | 1.09e6 | 1.08e6 | 9.73e5 | 8.83e5 | inactive
CG31826 | DRSC03357 | 1.72e6 | 1.68e6 | 1.35e6 | 1.47e6 | inactive
CG32264 | DRSC08061 | 1.29e6 | 1.20e6 | 6.99e5 | 8.57e5 | active
CG32264 | DRSC08167 | 1.50e6 | 1.38e6 | 1.04e6 | 1.34e6 | inactive
CG32264 | DRSC08169 | 1.36e6 | 1.41e6 | 1.22e6 | 1.18e6 | inactive
CG32264 | DRSC08285 | 1.49e6 | 1.66e6 | 1.09e6 | 1.21e6 | inactive
CG32264 | DRSC08437 | 1.58e6 | 1.55e6 | 5.57e5 | 6.84e5 | active
TrpRS (Tryptophanyl-tRNA synthetase) | DRSC14097 | 1.76e6 | 1.77e6 | 1.21e6 | 1.33e6 | inactive
hubl (hug-bell) | DRSC06825 | 1.43e6 | 1.56e6 | 1.30e6 | 1.37e6 | inactive
l(2)09851 (lethal (2) 09851) | DRSC04858 | 1.49e6 | 1.50e6 | 1.28e6 | 1.31e6 | inactive
Srg3 (Sting-regulated gene 3) | DRSC08984 | 1.91e6 | 1.96e6 | 1.29e6 | 1.48e6 | inactive
Srg3 (Sting-regulated gene 3) | DRSC10178 | 1.54e6 | 1.81e6 | 1.22e6 | 1.26e6 | inactive
smash (smallish) | DRSC12139 | 1.56e6 | 1.53e6 | 1.41e6 | 1.51e6 | inactive
smash (smallish) | DRSC12239 | 1.49e6 | 2.00e6 | 1.24e6 | 1.33e6 | inactive
osk (oskar) | DRSC17023 | 1.40e6 | 1.49e6 | 1.23e6 | 1.26e6 | inactive
Tailor | DRSC12526 | 1.37e6 | 1.49e6 | 1.22e6 | 1.35e6 | inactive
tsr (twinstar) | DRSC04718 | 1.64e6 | 1.64e6 | 1.20e6 | 1.36e6 | inactive
CG3349 | DRSC10359 | 1.23e6 | 1.24e6 | 1.25e6 | 1.36e6 | inactive
Rhp (Rhophilin) | DRSC20279 | 1.38e6 | 1.43e6 | 1.05e6 | 1.14e6 | inactive
Ir56d (Ionotropic receptor 56d) | DRSC06590 | 1.50e6 | 1.58e6 | 1.20e6 | 1.34e6 | inactive
CG14187 | DRSC10186 | 1.46e6 | 1.36e6 | 1.36e6 | 1.42e6 | inactive
Fkbp39 (FK506-binding protein 39kD) | DRSC16667 | 1.61e6 | 1.71e6 | 1.25e6 | 1.30e6 | inactive
Sxl + CG14425 (retired record) | DRSC18721 | 6.23e5 | – | 9.65e5 | – | inactive
Sxl + CG14425 (retired record) | DRSC18722 | 1.56e6 | 1.54e6 | 1.06e6 | 1.19e6 | inactive
Ccm3 (Cerebral cavernous malformation 3) | DRSC15711 | 1.36e6 | 1.37e6 | 1.00e6 | 8.79e5 | inactive
CG5597 | DRSC04517 | 1.57e6 | 1.63e6 | 1.02e6 | 1.09e6 | inactive
CG18371 | DRSC06733 | 1.58e6 | 1.64e6 | 1.30e6 | 1.47e6 | inactive
Tusp | DRSC15838 | 1.60e6 | 1.71e6 | 1.02e6 | 1.18e6 | inactive
Kcmf1 (Potassium channel modulatory factor 1) | DRSC14459 | 1.47e6 | 1.54e6 | 1.19e6 | 1.25e6 | inactive
Muc4B (Mucin 4B) | DRSC18062 | 1.55e6 | 1.50e6 | 9.09e5 | 9.74e5 | inactive
Muc4B (Mucin 4B) | DRSC18063 | 1.53e6 | 1.58e6 | 9.26e5 | 1.11e6 | inactive
